The target in test [1] is human dopamine D1 receptor (Homo sapiens, UniProt P21728). Put plainly: [3H]-SCH-23390 binding to cloned human dopamine D1 receptors (CHO cell membranes). The note with it: read-out: D1 affinity Ki. How it is done:
[^3H]-SCH-23390 Binding to Cloned Human Dopamine D1 Receptors
Determination of relative binding affinity of potential neuropsychiatric and other agents for the human dopamine D1 receptor.
The human D, cDNA was obtained from the laboratory of Dr. Marc Caron in the vector pCMV5. A 1.4 Kb Hind III to Xho I fragment was subcloned into the vector pMMLV. The plasmid pHD1MMLV was then sequenced completely. Transient transfections in COS-7 cells were performed and D1 specific binding was obtained. The construct pHD1MMLV was then transfected stably into CHO cells and 72 G418-resistant clones were isolated. High expressors were identified by mRNA dot blot analysis. Six high expressors were further characterized by binding and then clone CHO-D1M#9 was chosen for detailed pharmacological characterization. This clone was then grown in suspension culture for the purpose of obtaining enough protein to accommodate several months of screening.
B. Cell Culture Conditions
• 1. […] Cells are transferred to suspension culture when at least […] are available (this allows for 300,000 cells/ml in a 50 ml spinner flask; this is the ideal suspension density). Cells are removed from flasks with trypsin, spun down at 1000×G and resuspended the pellet in fresh medium: • 50% CHO-SFM-II+50% Ham's F12 w/10% FBS (final FBS conc. 5%)+400 μg/ml G418+1% P/S. • 3. After the transfer to suspension culture, growth is monitored and cell viability is assessed using trypan blue exclusion. Total and viable cell count on 5 sectors of the hemocytometer are recorded. When the viable cell density reaches 600,000 cell/ml, the volume is doubled. • 4. […]
The membrane suspension is diluted in water and samples (10, 50 and 100 μl; q.s. to 100 μl with water) are diluted with 100 μl of 1% SDS. […] OD readings that fall between 0.1-0.5 (mid-range of standard curve) should typically be used for calculations. Protein concentrations are calculated from a standard curve using bovine serum albumin as standard by linear regression and interpolation. […]

Protein sequences, listed by entry. Tags and fused reporters are not part of them. Lines headed by an entry give the natural chain unless they say otherwise; changes in a name come on top.
UniProt P21728, whole entry: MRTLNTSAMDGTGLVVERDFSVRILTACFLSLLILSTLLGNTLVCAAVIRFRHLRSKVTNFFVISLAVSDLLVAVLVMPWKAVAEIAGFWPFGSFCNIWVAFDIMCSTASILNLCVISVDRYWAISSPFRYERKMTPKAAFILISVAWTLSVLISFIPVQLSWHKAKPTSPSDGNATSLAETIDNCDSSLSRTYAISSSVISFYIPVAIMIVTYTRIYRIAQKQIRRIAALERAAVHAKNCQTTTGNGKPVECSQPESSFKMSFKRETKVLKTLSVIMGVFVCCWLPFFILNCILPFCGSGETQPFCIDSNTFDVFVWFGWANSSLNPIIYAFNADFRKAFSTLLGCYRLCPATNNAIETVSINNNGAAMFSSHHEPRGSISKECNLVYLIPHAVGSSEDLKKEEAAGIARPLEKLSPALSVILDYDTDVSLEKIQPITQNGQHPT
UniProt P14416, whole entry: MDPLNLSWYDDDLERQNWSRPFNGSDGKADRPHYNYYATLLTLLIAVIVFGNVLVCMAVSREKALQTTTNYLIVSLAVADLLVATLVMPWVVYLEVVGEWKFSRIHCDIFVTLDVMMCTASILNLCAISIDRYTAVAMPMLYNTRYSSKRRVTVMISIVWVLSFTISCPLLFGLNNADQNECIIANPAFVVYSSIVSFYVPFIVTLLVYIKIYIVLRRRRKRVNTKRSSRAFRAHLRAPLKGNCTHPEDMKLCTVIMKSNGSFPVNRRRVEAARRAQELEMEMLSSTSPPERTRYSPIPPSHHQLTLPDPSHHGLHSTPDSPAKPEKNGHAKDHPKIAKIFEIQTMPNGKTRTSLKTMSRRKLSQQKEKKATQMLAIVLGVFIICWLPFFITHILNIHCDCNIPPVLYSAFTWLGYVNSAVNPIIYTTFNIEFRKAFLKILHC

The target of test [2] is D1 receptor (Homo sapiens, UniProt P21728). Put plainly: D1 Activation Adenylyl Cyclase Assay (cAMP FlashPlate, D1 transfected CHO cell line). The test is classed as cell-based. The note with it: tested form: HCl; for EC50: read-out: D1 EC50. As to the method:
D1 Activation Adenylyl Cyclase Assay
Purpose: To measure D1-agonist activity compounds using an Adenylyl Cyclase Activation Flash Plate Assay from NEN.
Buffers: Activation and Detection buffers are provided from NEN: Catalog # SMP004A.
Maintenance of D1 transfected CHO cell line: • 1. Cells are grown in a 150 cc flask in an incubator at 37° C. with 5% CO2 for 2-3 days (4 maximum) until confluent. • 2. Aspirate off old media (Cells adhere to the plastic flask), wash 2× with sterile PBS. • 3. Add ˜5 mL of Trypsin EDTA (enough to cover bottom of the flask) for 5 min. at RT. • 4. Stop digestion with 15 mL of Media (Ham's F12 plus 10% FBS, 1% P/S, 400 μg/mL G418). • Bang flask on counter to release them from the flask. • 5. Add 2 mL of this to 30 mL of Media in a fresh flask. Return to incubator. Preparation of Cells for Assay: • 1. Loosen the cells with 5 mL Vercine (EDTA)/flask for 10 minutes in incubator. • 2. Add 20 mL of Serum-free media/flask. Transfer to 50-mL Falcon tube. • 3. Spin down cells at 1000 RPM for 5 minutes at 4° C. • 4. Aspirate off old media and resuspend in 5 mL of Serum-free media/plate to be done. • 5. Dilute 10 μL 1/10 in 90 μL Trypan Blue solution and count with a hemocytometer. • Count (live cells only) all four areas and average them. • Count X 10^5 equals cells/mL (including accounting for dilution in Trypan). • 6. Dilute to 50,000 cells/50 μL (1,000,000 cells/mL) in Serum-free media. • 7. Put 50 μL/well in Rows 3-12 of a cAMP FlashPlate. • 8. Put in incubator at 37° C. for 2-4 hours, to allow cells to recover and attach. Adenylyl Cyclase Activation Assay: • 1. Prepare the cAMP standards: • Add 130 μL/well of stimulation buffer to each row of a separate 96-well “standard” plate, 2 columns/plate. • Dilute stock cAMP standard 1/5 with stimulation buffer (final concentration is 1000 pmol/mL). Add 130 μL of this to row A. • Make 1/2 serial dilutions by adding 130 μL from each well to the next (A-G), mixing between each. • Final concentrations are: • A: 500, B: 250, C: 125, D: 62.5, E: 31.25, F: 15.6, G: 7.8, H: 0 pmol/mL. • Place 100 μL from each row from 2 columns of the standard plate into columns 1 and 2 of each “reaction” plate. • 2. Prepare the negative and positive control in the “reaction” plate: • Column 3, rows A-D, add 100 μL stimulation buffer (negative control). • Column 3, rows E-H, add 90 μL of stimulation buffer plus 10 μL of 200 μM APO (positive control, […]). (10 μL 10 mM APO, plus 490 μL stim. buffer=1/50 dilution.) • 3. […]

The target of test [3] is human dopamine D2Long (D2L) receptors (Homo sapiens, UniProt P14416). The note with it: read-out: D2 affinity Ki.

Like-named read-outs stand apart in the source and are kept apart here. The match of structure and compound is tentative.

Turning to `Cc1ccc2c(c1O)C[C@@H](C1CCN(S(=O)(=O)CC(c3ccccc3)c3ccccc3)CC1)O[C@H]2CN`, the inhibition constant Ki in test [1] (tested form: HCl) came to 3.6 nM. Moreover, in test [2], the EC50 worked out at 40 nM and the “D1 max Ki” value was 50 nM. Moreover, in test [3] (tested form: HCl), the inhibition constant Ki is 0.00185 µM.

`C=CCN(CC=C)C(=O)N1CCC([C@@H]2Cc3c(ccc(C)c3O)[C@H](CN)O2)CC1`: the Ki in test [1] (tested form: HCl) is 125 nM; in test [3] (tested form: HCl), at least 100 µM. Further, the EC50 in test [2] worked out at 9 nM. Further, the “D1 max Ki” value in test [2] amounted to 32 nM.

`Cc1ccc2c(c1O)C[C@@H](C1CCN(C(C)C)CC1)O[C@H]2CN`: the results for the Ki in test [1] (tested form: 2HCl) and in test [3] (tested form: 2HCl) were 289 nM and at least 10 µM, respectively.

For orientation: Ki means a dissociation constant, usually derived from enzyme kinetics or from competition with a known ligand. Broadly, the EC50 is the midpoint of the concentration-response curve.

These data come from patent US7919508B2, “3-piperidinylisochroman-5-ols as dopamine agonists” (Aventis Pharmaceuticals Inc., priority 2004, dated 2011).
